# In PubChem BioAssay AID651702 (NMMLSC, 2012):
# Hit rate of the full screen: of about 360,000 compounds, about 2,400 (0.67%) were called active. The shares of active, inactive and inconclusive entries below differ from those in the screen.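 How the source made its calls: active means inhibition above about 55% (limit read from the data); inconclusive means no clear call, values can overlap the other calls; inactive means the rest.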
# Assay: LAMP-1 surface exposure blockers, TALL-104 cells – cell-based, flow cytometry, MLPCN library, primary screen (AID 651702)
# Conditions: TALL-104 LAMP-1 surface exposure, cells stimulated with thapsigargin and PMA; at 10 µM, stronger effect = higher value
row,Compound,inhibition
1,CC(=O)Nc1ccc(NC(=O)CCn2c(=O)oc3ccccc32)cc1,inconclusive
2,CCN1C(=O)[C@@H]2[C@@H](c3ccc(-c4ccc(Cl)c(Cl)c4)c(OC)c3)N3CCC[C@@]3(C(=O)OC)[C@@H]2C1=O,inactive: -2.2%
3,CCOC(=O)N1CCC(=NNC(=O)COc2cccc(C)c2)CC1,inconclusive
4,COc1ccc(OC)c(S(=O)(=O)NCc2ccccn2)c1,inconclusive
5,O=[N+]([O-])c1ccc(Nc2nc(NC3CCCCC3)nc(N3CCCC3)n2)cc1,active: 78.2%
6,CC(=O)N1c2ccccc2-c2nc3ccccc3n2C1C (stereo unspecified),inconclusive
7,Cc1nc2c(OCc3ccc(OC(F)F)cc3)cccn2c1N(C)C(=O)CCC1CCCC1,inconclusive
8,Cc1cc(F)ccc1-c1cc(C(=O)NCc2ccc(C(F)(F)F)cc2)[nH]n1,inactive: -5.6%
9,CSCCC(NC(N)=O)C(=O)Nc1ccc(C)cc1 (stereo unspecified),inconclusive
10,CC(C)(C)c1nnc(NC(=O)C2c3ccccc3Oc3ccccc32)s1,inconclusive
11,[O-]/C(=C(\C(=S)Nc1cccc2ccccc12)[n+]1ccccc1)c1ccc(Cl)s1,inconclusive
12,CCOC(=O)C(C(=O)OCC)c1cc(Br)c2noc3c2c1C(=O)c1ccccc1-3,active: 98.1%
13,COC(=O)c1[nH]c2ccccc2c1CN1CCOCC1,inactive: 15.3%
14,O=c1c(-c2ccccc2)nnc2sc(COc3ccc(Br)cc3)nn12,inconclusive
15,CC(C)C(OC(=O)c1cccs1)C(=O)NCc1ccc(F)cc1 (stereo unspecified),inconclusive
16,Cc1nn(C)c(C)c1S(=O)(=O)NC1CCCC1,inconclusive
17,Cc1cc(C)n2cc(CSc3nc4ccccc4s3)nc2n1,inactive: -3.1%
18,CC(=O)NS(=O)(=O)c1ccc(NC(=S)NC(=O)Cc2ccccc2)cc1,inactive: 0.2%
19,O=C1C(=O)N(CCN2CCOCC2)C(c2cccc(Cl)c2)/C1=C(/O)c1ccc2c(c1)OCO2 (stereo unspecified),inconclusive
20,COc1ccc(-n2cc(C(=O)Nc3cc([N+](=O)[O-])ccc3OC)c3ccccc3c2=O)cc1,inconclusive
21,COc1ccccc1N(CC(=O)Nc1cccc(C(F)(F)F)c1)S(C)(=O)=O,active: 80.1%
22,COc1cc(C(=O)Oc2cccc(Nc3ncnc4ccccc34)c2)cc(OC)c1OC,inactive: 16.5%
23,O=C(Nc1ccc(F)cc1)c1cccnc1,inconclusive
24,Cc1ccc(Cl)cc1N1CCN(C(=O)CSc2ccsc2[N+](=O)[O-])CC1,inactive: -1.9%

row,Compound,inhibition
1,CN(C)c1ccc(NC(=O)C[n+]2ccccc2)cc1,active: 56.2%
2,COc1ccc(CNC(=S)Nc2cc(OC)ccc2OC)cc1,inactive: -0.1%
3,Cc1c(NC(=O)/C(C#N)=C/c2ccc(-c3ccccc3Cl)o2)c(=O)n(-c2ccccc2)n1C,inconclusive
4,CCCn1c2ccccc2c2cnn(CC(=O)NCCN(CC)CC)c(=O)c21,inconclusive
5,Cc1[nH]nc(N=CC2=C(O)CC(c3ccco3)CC2=O)c1-c1ccc(Cl)cc1 (stereo unspecified),active: 98.5%
6,O=C(CCCC(=O)OCC(=O)c1cccs1)Nc1ccc(F)cc1,inactive: 4.8%
7,O=C1O/C(=C\C(=O)N2CCOCC2)c2ccccc21,inconclusive
8,O=C1CC(N2CCN(c3ccc(C(=O)c4ccc(F)cc4)cc3)CC2)C(=O)N1 (stereo unspecified),inconclusive
9,O=C(COC(=O)C1CC(O)CN1S(=O)(=O)c1ccc(Cl)cc1)c1ccccc1 (stereo unspecified),inactive: 2%
10,CC(C)N1C(=O)CSC1c1ccc(Br)cc1 (stereo unspecified),inactive: 2.2%
11,Cc1ccc(C(O)(COC(=O)C(C)C)COC(=O)C(C)C)c(O)c1,inconclusive
12,CCc1nc2ccc(C(=O)NCc3ccc4c(c3)OCO4)cn2c1N(CC)CCOC,inactive: -0.4%
13,CCOC(=O)C(=O)N(C)c1c(CC)nc2c(OCc3ccccc3OC)cccn12,inconclusive
14,COc1cc(S(=O)(=O)n2ccc(C)n2)c(OC)cc1Cl,inactive: -0.4%
15,Clc1ccc(-c2c(C3=NCCCN3)nnn2-c2ccc(Cl)cc2)cc1,active: 56.2%
16,CC(=O)c1cnc(N(C)C)s1,inactive: 2%
17,O=C(c1cccs1)N(c1ccc(F)cc1)C1C=CS(=O)(=O)C1 (stereo unspecified),inconclusive
18,COc1ccc2nc(NC(=O)C3CCN(C(=O)c4ccco4)CC3)sc2c1,inconclusive
19,CCCCn1c(=O)c2ccccc2c2ccccc2c1=O,inactive: 1.1%
20,O=c1oc2ccccc2c2c1nc(C(F)(F)F)n2-c1ccccc1,active: 66.7%
21,Cc1ccccc1N(CC(=O)NCCc1ccccc1)C(=O)CCC(=O)Nc1ccccn1,inconclusive
22,O=C(O)/C=C/c1ccc(S(=O)(=O)Nc2ccc3[nH]c(=O)[nH]c3c2)cc1,inconclusive
23,Cc1ccc(S(=O)(=O)N2C[C@H]3[C@H]4C(=O)N(C5CCCCC5)C(=O)[C@H]4CC(=O)[C@H]3[C@@H]2c2ccccc2F)cc1,inconclusive
24,COC(=O)c1ccc(CNC(=O)C(Cc2ccccc2)NC(=O)c2ccccc2)cc1 (stereo unspecified),inconclusive

row,Compound,inhibition
1,Cc1cc(C)n(-c2ccc(Cl)c(C(=O)O)n2)n1,inconclusive
2,COc1ccc(-c2nsc(SCC(=O)Nc3ccc4c(c3)OCO4)n2)cc1,inactive: -1.5%
3,O=C(Cn1c(-c2ccccc2Cl)nc2ccccc21)Nc1cccc(Cl)c1,inactive: -7.2%
4,CC(OC(=O)CN1C(=O)c2ccccc2C1=O)C(=O)NC1CCCC1 (stereo unspecified),inconclusive
5,O=C(N1CCOCC1)N(Cc1cccs1)C1CCCC1,inconclusive
6,Cc1onc(-c2ccccc2Cl)c1C(=O)N1CCC(C(N)=O)CC1,inactive: 7.5%
7,Cc1ccc(NC(=O)c2cc(N3C(=O)CCC3=O)ccc2N2CCOCC2)cc1,inactive: 1%
8,Cc1ccc(C(=O)NNC(=O)CCC(=O)Nc2cccc(Cl)c2C)cc1,inconclusive
9,CC(=O)c1ccc(S(=O)(=O)N(C)CC(=O)NCC2CCCCC2)cc1,inconclusive
10,Cc1cc(C)nc(/N=c2/ssnc2Cl)c1,active: 82.2%
11,O=C(NC(=S)Nc1c(Cl)ccc2nsnc12)c1ccco1,inconclusive
12,C=C(C)CSc1nnc2n(Cc3ccccc3)c(=O)c3c4c(sc3n12)CCC4,inactive: -1.7%
13,Cc1cc(=O)[nH]c(N/N=C/c2cccs2)n1,inconclusive
14,COc1ccc(COc2cc(-c3cccc(OC)c3)nc3ccc(NC(=O)c4ccc(OC)cc4)cc23)cc1,inactive: -4%
15,COc1ccc(S(=O)(=O)NCCSc2ccc(C)cc2)cc1OC,inconclusive
16,O=C(Nc1ccccc1-c1ccccc1)c1cccs1,inconclusive
17,COc1ccccc1CNc1nc(NCc2ccc3occc3c2)c2sccc2n1,active: 92.8%
18,CC(=O)N1CCN(c2ccc(NS(=O)(=O)c3ccc(C)cc3)cc2)CC1,inconclusive
19,CCC(c1nnnn1Cc1ccc(F)cc1)N1CCN(C2CCCCC2)CC1 (stereo unspecified),inconclusive
20,Cn1nnnc1SCC(=O)Nc1cc(C(F)(F)F)ccc1N1CCOCC1,inconclusive
21,CCNC(=O)CNC(=O)c1nn(Cc2ccccc2)c(=O)c2ccccc12,inconclusive
22,COc1ccc(OC)c(NC(=O)c2cc3c(Cl)nc4ccccc4c3s2)c1,inactive: -0.7%
23,Cc1nc(CSc2ccc(Cl)cc2)cc(N2CCOCC2)n1,inconclusive
24,Cn1c(N)c(S(=O)(=O)NCc2ccccc2)c(=O)n(C)c1=O,inactive: -0.7%

row,Compound,inhibition
1,CCOC(=O)C1(Cc2ccc(OC)cc2)CCN(C(=O)C2CC(=O)N(C3CC3)C2)CC1 (stereo unspecified),inconclusive
2,COCc1cc(=O)n2[nH]c(N)nc2n1,inactive: -4%
3,CCNC(=O)COc1cccc(C(=O)NCc2ccccc2)c1,inconclusive
4,CC(=O)Oc1cccc(NC(=O)c2cccc(C(=O)Nc3cccc(OC(C)=O)c3)c2)c1,active: 63.8%
5,CCCCCCCCCCOC(=O)Cn1c(COc2ccccc2OC)[n+](C)c2ccccc21,active: 88.8%
6,O=c1[nH]cnc(O)c1C(c1ccc(Br)cc1)c1c(O)nc[nH]c1=O,inconclusive
7,O=C(c1cccc(F)c1)N(Cc1nc2ccccc2c(=O)[nH]1)C1CCCC1,inconclusive
8,O=C(CSCc1c(F)cccc1Cl)NCc1cccnc1,inconclusive
9,CSc1cccc(N2CC(C(=O)Nc3cccc(S(=O)(=O)N4CCCC4)c3)CC2=O)c1 (stereo unspecified),inconclusive
10,COc1ccc(C2C3=C(CCCC3=O)N(CC(=O)O)C3=C2C(=O)CCC3)cc1Cl,inactive: 4.3%
11,CC(C)(C)C1=NN(c2ccc([N+](=O)[O-])cc2)C(c2ccccc2)C1 (stereo unspecified),inconclusive
12,Cc1cccc2c1-c1sc(C(=O)NCCCN3CCC(C)CC3)cc1CO2,active: 78.6%
13,CCOC1=NC(=C(c2ccccc2)c2ccccc2)OC1=O,inactive: 5.7%
14,C=CCOc1ccc(CN(C)C(=O)C2CCCO2)cc1 (stereo unspecified),inconclusive
15,O=C(Nc1ccc(C(F)(F)F)cc1)C1CCN(S(=O)(=O)c2ccc(N3CCCC3=O)cc2)CC1,inactive: -1.7%
16,C#CCNC(=O)C1=C[C@@H](c2coc3ccccc3c2=O)C[C@@H](OCc2ccc(CO)cc2)O1,active: 87.7%
17,Nc1scc2c(C(=O)N/N=C/c3ccc(Cl)cc3)nn(-c3ccccc3)c(=O)c12,inactive: -4.6%
18,COc1ccc(CNC(=O)COc2cccnc2[N+](=O)[O-])cc1OC,inconclusive
19,Cc1ccccc1NC(=S)N(C)Cc1cn(C)c2ccccc12,inconclusive
20,COCCCNC(=S)N1CCN(c2nc(C)nc3sc4c(c23)CCCC4)CC1,active: 66.5%
21,COc1cc(OC)cc(C(=O)NNC(=O)c2cc3c(s2)CCCC3)c1,inconclusive
22,Cn1nc([N+](=O)[O-])c(C(C#N)c2nc3ccccc3n2C)c(Cl)c1=O (stereo unspecified),active: 71.3%
23,CCOC(=O)c1c(-c2ccccc2)[nH]c2ccc(O)cc12,inconclusive
24,Cn1nc(C(=O)OCC(=O)Nc2ccc(SC(F)F)cc2)c2ccccc2c1=O,inactive: -13.1%
